Source: PubChem BioAssay AID192 (DTP/NCI, 2004)
The list does not hold the whole screen: it is rich in T/C values a quarter to a half above the control, in often repeated tests (any T/C) and in doses without a T/C. Further doses and runs are listed elsewhere. T/C: endpoint of the treated group in % of that of the vehicle group. Some entries give survivors of the animals treated and no T/C: the source files T/C as zero there, which appears to mark a toxic dose or a test without result, not a measured value. Some survivor counts are full or nearly so, which does not show that the dose was tolerated: survival well below the control is almost never listed, so the zero probably covers shortened survival too. Survivors were counted at the toxicity check, usually on the fifth day, unless a day is given; later deaths do not show. Schedule codes are those of the source, taken here to give the interval after Q, in days (D) or hours (H), and the number of doses after X. Some doses were run more than once; the values are given in rising order. Where survival is the endpoint, this PubChem deposit counts one and a half times the control or more as active, and values a quarter to a half above the control carry no call in these data; other NCI protocols may use other cut-offs.

Test system: BDF1 mice, B16 melanoma ip, median survival T/C
Test: NCI In Vivo Anticancer Drug Screen. Data for tumor model B16 Melanoma (intraperitoneal) in B6D2F1 (BDF1) mice
Conditions: T/C endpoint: median survival time, higher T/C = longer survival
Procedure, shortened: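 Compounds were tested in mice carrying transplantable tumors. Survival or tumor size was recorded, and each value is the treated-group measurement (T) divided by that of the vehicle-treated control group (C).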

[1] = dose: 400.0 mg/kg/injection, schedule: Q04DX003 (ip), vehicle: saline with Tween-80
[2] = dose: 12.5 mg/kg/injection, schedule: Q01DX009 (ip), vehicle: saline with Tween-80

What does the source list for `CO[C@H]1/C=C/O[C@@]2(C)Oc3c(C)c(O)c4c(O)c(c(/C=N/N5C(C)CN(Cc6ccccc6)CC5C)c(O)c4c3C2=O)NC(=O)/C(C)=C\C=C\[C@H](C)[C@H](O)[C@@H](C)[C@@H](O)[C@@H](C)[C@H](OC(C)=O)[C@@H]1C` (stereo partly specified)?
survivor count (dose: 4.0 mg/kg/injection, schedule: Q03HX024 (ip), vehicle: clinical formulation): 9 of 10; survivor count (dose: 4.0 mg/kg/injection, schedule: Q03HX040 (ip), vehicle: clinical formulation): 9 of 10; survivor count (dose: 4.0 mg/kg/injection, schedule: Q03HX088 (ip), vehicle: Klucel (hydroxypropylcellulose) (HPC)): 10 of 10; survivor count (dose: 4.0 mg/kg/injection, schedule: Q03HX088 (ip), vehicle: other): 9 of 10; survivor count (dose: 8.0 mg/kg/injection, schedule: Q01DX020 (ip), vehicle: clinical formulation): 8 of 10; survivor count (dose: 8.0 mg/kg/injection, schedule: Q03HX040 (ip), vehicle: clinical formulation): 9 of 10; survivor count (dose: 8.0 mg/kg/injection, schedule: Q03HX088 (ip), vehicle: Klucel (hydroxypropylcellulose) (HPC)): 10 of 10; survivor count (dose: 8.0 mg/kg/injection, schedule: Q03HX088 (ip), vehicle: other): 9 of 10; survivor count (dose: 16.0 mg/kg/injection, schedule: Q01DX020 (ip), vehicle: clinical formulation): 9 of 10; survivor count (dose: 16.0 mg/kg/injection, schedule: Q02DX010 (ip), vehicle: clinical formulation): 8 of 10; survivor count (dose: 16.0 mg/kg/injection, schedule: Q03HX024 (ip), vehicle: clinical formulation): 9 of 10; survivor count (dose: 16.0 mg/kg/injection, schedule: Q03HX040 (ip), vehicle: clinical formulation): 10 of 10; survivor count (dose: 16.0 mg/kg/injection, schedule: Q03HX088 (ip), vehicle: Klucel (hydroxypropylcellulose) (HPC)): 10 of 10; survivor count (dose: 16.0 mg/kg/injection, schedule: Q03HX088 (ip), vehicle: other): 10 of 10; survivor count (dose: 32.0 mg/kg/injection, schedule: Q01DX020 (ip), vehicle: clinical formulation): 10 of 10; survivor count (dose: 32.0 mg/kg/injection, schedule: Q02DX010 (ip), vehicle: clinical formulation): 10 of 10; survivor count (dose: 32.0 mg/kg/injection, schedule: Q03HX008 (ip), vehicle: clinical formulation): 7 of 10; survivor count (dose: 32.0 mg/kg/injection, schedule: Q03HX040 (ip), vehicle: clinical formulation): 7 of 10; survivor count (dose: 32.0 mg/kg/injection, schedule: Q03HX088 (ip), vehicle: Klucel (hydroxypropylcellulose) (HPC)): 8 of 10; survivor count (dose: 32.0 mg/kg/injection, schedule: Q03HX088 (ip), vehicle: other): 10 of 10; survivor count (dose: 32.0 mg/kg/injection, schedule: Q04DX005 (ip), vehicle: clinical formulation): 7 of 10; survivor count (dose: 32.0 mg/kg/injection, schedule: Q08DX003 (ip), vehicle: clinical formulation): 5 of 10; survivor count (dose: 64.0 mg/kg/injection, schedule: Q01DX001 (ip), vehicle: clinical formulation): 9 of 10; survivor count (dose: 64.0 mg/kg/injection, schedule: Q01DX020 (ip), vehicle: clinical formulation): 10 of 10; survivor count (dose: 64.0 mg/kg/injection, schedule: Q02DX010 (ip), vehicle: clinical formulation): 10 of 10; survivor count (dose: 64.0 mg/kg/injection, schedule: Q03HX008 (ip), vehicle: clinical formulation): 6 of 10; survivor count (dose: 64.0 mg/kg/injection, schedule: Q03HX024 (ip), vehicle: clinical formulation): 7 of 10; survivor count (dose: 64.0 mg/kg/injection, schedule: Q03HX040 (ip), vehicle: clinical formulation): 5 of 10; survivor count (dose: 64.0 mg/kg/injection, schedule: Q03HX088 (ip), vehicle: Klucel (hydroxypropylcellulose) (HPC)): 9 of 10; survivor count (dose: 64.0 mg/kg/injection, schedule: Q03HX088 (ip), vehicle: other): 7 of 10; T/C (dose: 100.0 mg/kg/injection, schedule: Q01DX009 (ip), vehicle: saline): 130 % of control; survivor count (dose: 128.0 mg/kg/injection, schedule: Q01DX001 (ip), vehicle: clinical formulation): 9 of 10; survivor count (dose: 128.0 mg/kg/injection, schedule: Q01DX020 (ip), vehicle: clinical formulation): 7 of 10; survivor count (dose: 128.0 mg/kg/injection, schedule: Q02DX010 (ip), vehicle: clinical formulation): 9 of 10; survivor count (dose: 128.0 mg/kg/injection, schedule: Q03HX008 (ip), vehicle: clinical formulation): 0 of 10; survivor count (dose: 128.0 mg/kg/injection, schedule: Q03HX024 (ip), vehicle: clinical formulation): 0 of 10; survivor count (dose: 128.0 mg/kg/injection, schedule: Q04DX005 (ip), vehicle: clinical formulation): 7 of 10; survivor count (dose: 128.0 mg/kg/injection, schedule: Q08DX003 (ip), vehicle: clinical formulation): 8 of 10; survivor count (dose: 256.0 mg/kg/injection, schedule: Q01DX020 (ip), vehicle: clinical formulation): 0 of 10; survivor count (dose: 256.0 mg/kg/injection, schedule: Q02DX010 (ip), vehicle: clinical formulation): 5 of 10; survivor count (dose: 256.0 mg/kg/injection, schedule: Q04DX005 (ip), vehicle: clinical formulation): 9 of 10; survivor count (dose: 256.0 mg/kg/injection, schedule: Q08DX003 (ip), vehicle: clinical formulation): 7 of 10; survivor count (dose: 400.0 mg/kg/injection, schedule: Q01DX009 (ip), vehicle: saline): 9 of 10; survivor count (dose: 512.0 mg/kg/injection, schedule: Q01DX001 (ip), vehicle: clinical formulation): 2 of 10; survivor count (dose: 512.0 mg/kg/injection, schedule: Q02DX010 (ip), vehicle: clinical formulation): 0 of 10; survivor count (dose: 512.0 mg/kg/injection, schedule: Q04DX005 (ip), vehicle: clinical formulation): 0 of 10; survivor count (dose: 512.0 mg/kg/injection, schedule: Q08DX003 (ip), vehicle: clinical formulation): 2 of 10; survivor count (dose: 1024.0 mg/kg/injection, schedule: Q01DX001 (ip), vehicle: clinical formulation): 0 of 10; survivor count (dose: 1024.0 mg/kg/injection, schedule: Q08DX003 (ip), vehicle: clinical formulation): 0 of 10

Which survivor count (dose: 1.56 mg/kg/injection, schedule: Q01DX009 (ip), vehicle: Klucel (hydroxypropylcellulose) (HPC)) does the source give for `NC(=O)N1CCN(CCCN2c3ccccc3Sc3cc(Cl)ccc32)CC1` here?
Its survivor count is 10 of 10.

And the survivor count (dose: 50.0 mg/kg/injection, schedule: Q01DX009 (ip), vehicle: Klucel (hydroxypropylcellulose) (HPC))?
Its survivor count is 5 of 10.

What about the survivor count (dose: 100.0 mg/kg/injection, schedule: Q01DX009 (ip), vehicle: Klucel (hydroxypropylcellulose) (HPC)) of the same molecule?
Its survivor count is 0 of 10.

What about the survivor count (dose: 200.0 mg/kg/injection, schedule: Q01DX009 (ip), vehicle: Klucel (hydroxypropylcellulose) (HPC)) of the same molecule?
The survivor count was 0 of 10.

What about the survivor count (dose: 400.0 mg/kg/injection, schedule: Q01DX009 (ip), vehicle: Klucel (hydroxypropylcellulose) (HPC)) of the same molecule?
Its survivor count is 0 of 10.

With `CCCCn1cnc2c(SC)ncnc21` as the molecule, how does the survivor count (dose: 200.0 mg/kg/injection, schedule: Q01DX009 (ip), vehicle: saline with Tween-80) read?
The survivor count was 2 of 10.

Which results are given for `NC(CC(=O)CCl)C(=O)O` (stereo unspecified)?
T/C (dose: 12.5 mg/kg/injection, schedule: Q01DX009 (ip), vehicle: saline): 126 % of control; T/C (dose: 25.0 mg/kg/injection, schedule: Q01DX009 (ip), vehicle: saline): 137 % of control

With `CCCCC(C=O)(C=C=C(C)C)CC` (stereo unspecified) as the molecule, how does the survivor count [1] read?
Its survivor count is 10 of 10.

`CCc1ccc2c(c1)N(CCCN(CCCl)CCCl)c1ccccc1S2` was tested. Which T/C [2] did it give?
Its T/C is 141 % of control.

What about the survivor count [2] of the same molecule?
The survivor count was 8 of 10.

What about the survivor count (dose: 25.0 mg/kg/injection, schedule: Q01DX009 (ip), vehicle: saline with Tween-80) of the same molecule?
Its survivor count is 4 of 10 and 5 of 10.

For `O=C(OCCOCCN1CCCCC1)N1c2ccccc2Sc2cccnc21`, which survivor count (dose: 6.25 mg/kg/injection, schedule: Q01DX009 (ip), vehicle: saline) is on record?
Its survivor count is 10 of 10.

What about the survivor count (dose: 50.0 mg/kg/injection, schedule: Q01DX009 (ip), vehicle: saline) of the same molecule?
Its survivor count is 7 of 10.

What does the source list for `COC1=Nc2ccccc2N2CCN=C12`?
survivor count (dose: 100.0 mg/kg/injection, schedule: Q04DX003 (ip), vehicle: saline with Tween-80): 10 of 10; survivor count (dose: 200.0 mg/kg/injection, schedule: Q04DX003 (ip), vehicle: saline with Tween-80): 0 of 10; survivor count [1]: 0 of 10
